From publication PMC9491610
Results are given in words; binding and its absence hold for the method and conditions named. In cells and extracts the contact can be indirect. Some binding calls cover weakened binding; strength is not graded here.

Assays:
Assay in all cases: co-IP; Stu2-HA precipitated with anti-HA magnetic beads from 90 mg cryo-milled yeast extract in 1x PBS pH 7.4 with 0.1% Tween; precipitate blotted with anti γ-tubulin (anti-Tub4)
[1] = biological target: T1, Stu2-K252,469Q-3xHA (S. cerevisiae) (UniProt P46675)
T1 sequence: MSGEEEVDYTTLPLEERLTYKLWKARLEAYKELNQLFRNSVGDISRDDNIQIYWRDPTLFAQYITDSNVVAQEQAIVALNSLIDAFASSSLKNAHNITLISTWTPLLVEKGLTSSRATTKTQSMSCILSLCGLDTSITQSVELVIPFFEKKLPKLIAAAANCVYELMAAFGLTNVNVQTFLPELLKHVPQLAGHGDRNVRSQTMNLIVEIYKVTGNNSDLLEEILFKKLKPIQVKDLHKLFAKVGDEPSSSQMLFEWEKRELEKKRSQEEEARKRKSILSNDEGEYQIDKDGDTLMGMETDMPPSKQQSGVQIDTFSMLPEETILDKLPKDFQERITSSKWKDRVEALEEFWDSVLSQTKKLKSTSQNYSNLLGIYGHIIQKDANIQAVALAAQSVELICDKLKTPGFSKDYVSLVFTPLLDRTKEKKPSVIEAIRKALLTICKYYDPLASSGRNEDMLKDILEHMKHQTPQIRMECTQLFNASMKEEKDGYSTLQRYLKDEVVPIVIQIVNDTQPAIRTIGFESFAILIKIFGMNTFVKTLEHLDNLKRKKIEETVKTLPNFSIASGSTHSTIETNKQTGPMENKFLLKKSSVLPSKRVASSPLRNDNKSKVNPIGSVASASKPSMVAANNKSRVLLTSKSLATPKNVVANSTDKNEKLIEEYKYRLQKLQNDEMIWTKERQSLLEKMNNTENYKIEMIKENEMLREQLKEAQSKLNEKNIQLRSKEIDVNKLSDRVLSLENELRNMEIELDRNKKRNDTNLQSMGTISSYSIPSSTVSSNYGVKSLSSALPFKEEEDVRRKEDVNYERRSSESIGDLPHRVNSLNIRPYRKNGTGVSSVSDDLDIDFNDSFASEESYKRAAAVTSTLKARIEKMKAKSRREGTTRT

[2] = biological target: T2, Stu2-K252Q-3xHA (S. cerevisiae) (UniProt P46675)
T2 sequence: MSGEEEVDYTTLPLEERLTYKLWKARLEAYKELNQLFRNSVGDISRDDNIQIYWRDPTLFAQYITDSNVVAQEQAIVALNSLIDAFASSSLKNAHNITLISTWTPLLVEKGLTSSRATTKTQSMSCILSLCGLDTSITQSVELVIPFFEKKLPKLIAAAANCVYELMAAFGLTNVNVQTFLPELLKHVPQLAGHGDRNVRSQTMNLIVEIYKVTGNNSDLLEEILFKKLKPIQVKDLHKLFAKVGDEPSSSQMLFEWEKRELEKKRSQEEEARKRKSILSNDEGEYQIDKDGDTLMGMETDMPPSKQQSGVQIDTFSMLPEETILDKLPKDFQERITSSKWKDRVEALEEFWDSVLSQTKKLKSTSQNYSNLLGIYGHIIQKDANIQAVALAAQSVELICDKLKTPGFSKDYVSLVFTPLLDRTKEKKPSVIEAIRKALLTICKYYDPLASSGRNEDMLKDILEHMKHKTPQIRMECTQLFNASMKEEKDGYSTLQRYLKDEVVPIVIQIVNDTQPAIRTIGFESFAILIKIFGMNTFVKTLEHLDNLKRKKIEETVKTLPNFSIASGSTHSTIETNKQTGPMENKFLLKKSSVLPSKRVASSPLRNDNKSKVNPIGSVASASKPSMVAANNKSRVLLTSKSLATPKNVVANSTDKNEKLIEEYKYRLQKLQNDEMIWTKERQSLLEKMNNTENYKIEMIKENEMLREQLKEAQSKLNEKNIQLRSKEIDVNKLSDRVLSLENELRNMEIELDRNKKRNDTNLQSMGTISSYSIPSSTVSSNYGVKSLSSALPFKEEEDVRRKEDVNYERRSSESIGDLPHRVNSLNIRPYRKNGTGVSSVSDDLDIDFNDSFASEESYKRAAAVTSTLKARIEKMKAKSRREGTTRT

[3] = biological target: T3, Stu2-K870R-3xHA (S. cerevisiae) (UniProt P46675)
T3 sequence: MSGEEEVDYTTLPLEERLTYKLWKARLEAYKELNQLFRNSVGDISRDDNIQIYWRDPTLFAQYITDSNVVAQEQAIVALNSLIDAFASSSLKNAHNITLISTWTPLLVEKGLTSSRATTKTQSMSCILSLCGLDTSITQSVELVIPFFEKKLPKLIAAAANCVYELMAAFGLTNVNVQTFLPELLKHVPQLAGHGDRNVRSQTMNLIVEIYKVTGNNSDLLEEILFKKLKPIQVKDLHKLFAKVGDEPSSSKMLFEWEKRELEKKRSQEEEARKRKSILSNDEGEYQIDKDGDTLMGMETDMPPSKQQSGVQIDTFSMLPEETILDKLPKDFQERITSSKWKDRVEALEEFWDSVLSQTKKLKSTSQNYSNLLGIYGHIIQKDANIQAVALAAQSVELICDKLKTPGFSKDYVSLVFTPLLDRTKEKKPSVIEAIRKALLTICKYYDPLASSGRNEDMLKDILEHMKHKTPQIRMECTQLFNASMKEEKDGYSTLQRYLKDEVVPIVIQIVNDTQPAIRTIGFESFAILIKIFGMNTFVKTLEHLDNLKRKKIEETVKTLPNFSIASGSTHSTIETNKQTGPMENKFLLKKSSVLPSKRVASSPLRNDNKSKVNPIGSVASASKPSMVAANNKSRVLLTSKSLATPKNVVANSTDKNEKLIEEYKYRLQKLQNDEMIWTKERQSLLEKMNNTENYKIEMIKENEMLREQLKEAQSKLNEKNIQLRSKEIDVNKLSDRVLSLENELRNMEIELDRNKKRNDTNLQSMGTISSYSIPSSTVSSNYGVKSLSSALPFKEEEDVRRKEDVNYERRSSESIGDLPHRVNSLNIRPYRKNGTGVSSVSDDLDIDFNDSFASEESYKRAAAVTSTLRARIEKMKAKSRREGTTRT

Measured: binding

B1: γ-tubulin (Tub4) (protein, UniProt P53378 1-473)
chain: MGGEIITLQAGQCGNHVGKFLWSQLAKEHAIGTDGLSQLPDSSTERDDDTKPFFRENSRNKFTPRAIMMDSEPSVIADVENTFRGFFDPRNTWVASDGASAGNSWANGYDIGTRNQDDILNKIDKEIDSTDNFEGFQLLHSVAGGTGSGLGSNLLEALCDRYPKKILTTYSVFPARSSEVVVQSYNTILALRRLIEDSDATVVFDNASLLNISGKVFRNPNIDLQHTNQLISTIISSVTNSIRFPSYMYSSMSSIYSTLIPSPELHFLSPSFTPFTSDYIHDDIAHKGHSSYDVMLDLLDPSNSLVSTAMNNPTYFNVYNTIIGNVEPRQISRAMTKLQQRIKFPSWSSSAMHVNIGRRSPYLPLQPNENEVSGMMLSNMSTVVNVFENACNTFDKVFAKGAFLNNYNVGDLFQSMQNVQDEFAESREVVQSLMEDYVAAEQDSYLDDVLVDDENMVGELEEDLDADGDHKLV
binds: all assays above
